{
  "source": "patent US20250263426A1",
  "about": "“PDE4B INHIBITOR AND USE THEREOF” (Xizang Haisco Pharmaceutical Co., Ltd., priority 2022, published 2025)",
  "system": "TNF-α in lung tissue",
  "experiment": "Inhibitory activity on TNF-α secretion in LPS-induced lung inflammation model of mice",
  "type": "in vivo",
  "conditions": "oral administration 0.5 h before intratracheal LPS; lung tissue 24 h later",
  "note": "At least one structure is not confirmed: it was looked up by name or label, or the drawing left a doubt.",
  "data": [
    {"compound": "CC(C)(COC(N)=O)Nc1nc(N2CC=C(c3ncc(C4CC4)cn3)CC2)nc2c1[S@+]([O-])CC2", "note": "[Compound 84]", "values": [
      {"measurement": "LPS-induced expression of TNF-α in the lung tissue of mice", "result": "inhibits LPS-induced expression of TNF-α in the lung tissue of mice in a dose-dependent manner"}
    ]},
    {"compound": "CC(C)(COC(N)=O)Nc1nc(N2CC=C(c3ncc(Cl)cn3)CC2)nc2c1[S@+]([O-])CC2", "note": "[Compound 51]", "values": [
      {"measurement": "LPS-induced expression of TNF-α in the lung tissue of mice", "result": "inhibits LPS-induced expression of TNF-α in the lung tissue of mice in a dose-dependent manner"}
    ]}
  ]
}
